The record followed here is the supplement of paper PMC11732987, “Enantioselective OTUD7B fragment discovery through chemoproteomics screening and high-throughput optimisation” (Communications Chemistry, 2025).

By UniProt entry, the sequences of proteins in these tests, tags left out. Where a name states a change or a piece, a line headed by the entry shows the natural chain unless it says otherwise. Residues count along the entry.
UniProt Q04760: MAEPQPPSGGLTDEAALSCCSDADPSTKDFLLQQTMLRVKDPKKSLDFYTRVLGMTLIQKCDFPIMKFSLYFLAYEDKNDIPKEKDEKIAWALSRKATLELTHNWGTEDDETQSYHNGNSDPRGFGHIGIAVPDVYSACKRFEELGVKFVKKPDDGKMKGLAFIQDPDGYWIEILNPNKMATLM
UniProt Q92896: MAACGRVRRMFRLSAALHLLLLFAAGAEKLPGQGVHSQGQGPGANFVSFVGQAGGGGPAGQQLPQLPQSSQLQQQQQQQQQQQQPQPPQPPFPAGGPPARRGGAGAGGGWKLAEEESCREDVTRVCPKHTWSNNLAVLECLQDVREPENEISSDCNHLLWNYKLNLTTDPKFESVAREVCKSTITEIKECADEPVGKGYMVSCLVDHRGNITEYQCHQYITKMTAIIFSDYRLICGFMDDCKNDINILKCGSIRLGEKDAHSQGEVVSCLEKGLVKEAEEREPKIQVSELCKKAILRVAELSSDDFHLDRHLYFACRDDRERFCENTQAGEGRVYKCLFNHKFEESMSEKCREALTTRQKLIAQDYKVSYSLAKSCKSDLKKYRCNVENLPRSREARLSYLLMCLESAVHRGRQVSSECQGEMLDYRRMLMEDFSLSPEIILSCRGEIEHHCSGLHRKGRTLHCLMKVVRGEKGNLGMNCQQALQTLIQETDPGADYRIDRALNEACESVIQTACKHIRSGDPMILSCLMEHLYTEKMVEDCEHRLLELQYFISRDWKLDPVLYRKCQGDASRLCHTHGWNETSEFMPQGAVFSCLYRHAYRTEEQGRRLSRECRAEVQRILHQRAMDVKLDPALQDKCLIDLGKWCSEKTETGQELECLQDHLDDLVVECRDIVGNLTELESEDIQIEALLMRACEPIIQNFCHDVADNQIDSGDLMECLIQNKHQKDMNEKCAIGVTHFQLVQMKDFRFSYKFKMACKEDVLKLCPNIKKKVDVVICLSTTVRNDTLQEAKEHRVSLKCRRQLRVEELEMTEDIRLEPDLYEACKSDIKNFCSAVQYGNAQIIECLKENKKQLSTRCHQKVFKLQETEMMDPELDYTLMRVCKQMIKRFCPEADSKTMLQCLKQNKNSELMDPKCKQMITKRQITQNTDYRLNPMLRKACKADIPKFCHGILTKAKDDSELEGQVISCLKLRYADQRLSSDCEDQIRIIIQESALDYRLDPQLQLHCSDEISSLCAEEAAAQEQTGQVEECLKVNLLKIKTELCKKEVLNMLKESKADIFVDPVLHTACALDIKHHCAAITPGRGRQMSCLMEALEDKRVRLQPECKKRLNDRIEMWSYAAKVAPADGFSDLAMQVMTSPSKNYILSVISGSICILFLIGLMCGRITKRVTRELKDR
UniProt Q92616: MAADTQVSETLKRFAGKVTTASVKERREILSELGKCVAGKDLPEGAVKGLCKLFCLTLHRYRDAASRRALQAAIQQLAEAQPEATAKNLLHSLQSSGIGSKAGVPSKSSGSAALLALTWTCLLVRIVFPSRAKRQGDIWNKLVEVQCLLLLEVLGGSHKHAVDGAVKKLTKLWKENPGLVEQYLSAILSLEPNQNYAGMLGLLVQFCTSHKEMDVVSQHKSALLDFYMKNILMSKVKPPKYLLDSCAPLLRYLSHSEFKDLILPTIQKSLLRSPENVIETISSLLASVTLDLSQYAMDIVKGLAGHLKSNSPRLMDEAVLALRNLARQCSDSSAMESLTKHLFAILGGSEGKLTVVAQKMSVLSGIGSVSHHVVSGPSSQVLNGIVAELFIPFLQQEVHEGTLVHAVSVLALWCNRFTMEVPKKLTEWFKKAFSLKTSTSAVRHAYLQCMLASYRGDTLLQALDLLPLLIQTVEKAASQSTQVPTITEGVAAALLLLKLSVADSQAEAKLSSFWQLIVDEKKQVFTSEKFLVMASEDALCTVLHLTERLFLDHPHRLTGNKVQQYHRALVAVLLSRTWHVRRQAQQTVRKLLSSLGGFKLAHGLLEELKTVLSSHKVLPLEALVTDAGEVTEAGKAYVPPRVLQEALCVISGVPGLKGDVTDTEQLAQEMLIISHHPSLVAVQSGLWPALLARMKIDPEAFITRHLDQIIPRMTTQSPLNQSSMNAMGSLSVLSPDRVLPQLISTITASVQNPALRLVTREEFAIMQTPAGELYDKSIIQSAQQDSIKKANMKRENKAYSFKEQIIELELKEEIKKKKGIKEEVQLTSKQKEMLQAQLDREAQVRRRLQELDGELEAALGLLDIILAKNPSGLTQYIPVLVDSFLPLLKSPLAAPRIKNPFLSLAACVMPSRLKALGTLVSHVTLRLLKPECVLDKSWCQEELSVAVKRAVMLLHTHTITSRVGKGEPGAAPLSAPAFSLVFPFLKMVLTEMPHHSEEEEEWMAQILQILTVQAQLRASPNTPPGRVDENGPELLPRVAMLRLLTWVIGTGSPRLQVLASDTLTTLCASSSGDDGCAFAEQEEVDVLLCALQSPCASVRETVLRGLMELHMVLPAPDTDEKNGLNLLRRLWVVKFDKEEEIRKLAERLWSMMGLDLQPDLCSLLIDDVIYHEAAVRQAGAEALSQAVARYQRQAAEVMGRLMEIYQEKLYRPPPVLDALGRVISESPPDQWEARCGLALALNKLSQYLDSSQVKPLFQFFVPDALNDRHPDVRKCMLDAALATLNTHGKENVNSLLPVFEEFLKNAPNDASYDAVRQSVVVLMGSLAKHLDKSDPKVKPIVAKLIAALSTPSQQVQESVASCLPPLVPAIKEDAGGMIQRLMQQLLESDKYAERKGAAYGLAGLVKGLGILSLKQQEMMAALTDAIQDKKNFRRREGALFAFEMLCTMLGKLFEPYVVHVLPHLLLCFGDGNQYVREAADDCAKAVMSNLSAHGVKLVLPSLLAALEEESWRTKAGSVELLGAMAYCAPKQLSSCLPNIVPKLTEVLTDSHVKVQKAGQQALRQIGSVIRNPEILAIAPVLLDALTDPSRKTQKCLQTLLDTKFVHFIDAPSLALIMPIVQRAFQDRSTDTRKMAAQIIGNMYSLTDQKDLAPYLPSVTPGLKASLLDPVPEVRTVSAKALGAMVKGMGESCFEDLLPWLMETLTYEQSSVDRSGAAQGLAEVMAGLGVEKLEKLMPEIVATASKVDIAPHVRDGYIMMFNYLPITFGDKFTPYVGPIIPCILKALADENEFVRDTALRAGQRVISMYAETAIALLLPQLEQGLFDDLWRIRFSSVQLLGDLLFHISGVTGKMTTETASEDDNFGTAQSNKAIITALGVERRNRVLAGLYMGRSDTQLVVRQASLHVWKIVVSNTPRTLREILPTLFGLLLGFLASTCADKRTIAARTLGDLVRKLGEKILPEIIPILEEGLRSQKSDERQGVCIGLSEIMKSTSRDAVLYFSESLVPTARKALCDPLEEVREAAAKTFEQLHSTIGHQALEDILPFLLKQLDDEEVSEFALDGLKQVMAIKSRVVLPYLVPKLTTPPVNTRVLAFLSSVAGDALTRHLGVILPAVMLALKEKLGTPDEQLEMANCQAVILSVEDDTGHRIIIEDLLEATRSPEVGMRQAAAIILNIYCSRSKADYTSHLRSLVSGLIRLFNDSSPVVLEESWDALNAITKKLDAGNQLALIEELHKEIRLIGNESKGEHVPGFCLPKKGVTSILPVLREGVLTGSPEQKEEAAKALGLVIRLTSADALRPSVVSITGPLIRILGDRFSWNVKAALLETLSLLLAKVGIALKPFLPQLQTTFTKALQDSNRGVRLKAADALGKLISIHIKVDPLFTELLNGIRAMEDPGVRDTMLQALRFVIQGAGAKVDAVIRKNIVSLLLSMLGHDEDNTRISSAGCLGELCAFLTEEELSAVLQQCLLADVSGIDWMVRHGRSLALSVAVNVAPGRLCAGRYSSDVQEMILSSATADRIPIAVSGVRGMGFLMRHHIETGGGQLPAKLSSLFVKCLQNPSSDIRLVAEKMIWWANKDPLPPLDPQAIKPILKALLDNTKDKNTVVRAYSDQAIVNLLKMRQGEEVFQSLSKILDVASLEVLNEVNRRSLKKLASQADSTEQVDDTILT
UniProt P00367, 327-346: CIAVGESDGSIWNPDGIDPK
UniProt P43250, whole entry, looked up: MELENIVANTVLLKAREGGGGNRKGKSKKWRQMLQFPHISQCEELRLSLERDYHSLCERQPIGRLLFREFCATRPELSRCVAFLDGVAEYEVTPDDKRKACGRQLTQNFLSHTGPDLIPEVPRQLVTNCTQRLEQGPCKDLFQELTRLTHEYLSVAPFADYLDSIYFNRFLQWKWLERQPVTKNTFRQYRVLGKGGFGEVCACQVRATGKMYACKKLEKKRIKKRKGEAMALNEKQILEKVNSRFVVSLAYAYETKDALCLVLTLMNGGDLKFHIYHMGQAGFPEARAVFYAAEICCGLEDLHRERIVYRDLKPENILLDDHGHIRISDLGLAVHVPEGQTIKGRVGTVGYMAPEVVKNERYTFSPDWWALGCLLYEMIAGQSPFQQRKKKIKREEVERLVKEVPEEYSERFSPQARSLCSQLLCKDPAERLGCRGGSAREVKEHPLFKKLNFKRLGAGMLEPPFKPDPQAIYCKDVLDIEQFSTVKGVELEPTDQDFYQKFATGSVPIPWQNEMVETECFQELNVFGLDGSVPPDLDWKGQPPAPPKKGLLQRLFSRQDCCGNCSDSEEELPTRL
UniProt P49840, 372-391: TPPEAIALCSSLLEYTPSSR
UniProt Q9BVP2: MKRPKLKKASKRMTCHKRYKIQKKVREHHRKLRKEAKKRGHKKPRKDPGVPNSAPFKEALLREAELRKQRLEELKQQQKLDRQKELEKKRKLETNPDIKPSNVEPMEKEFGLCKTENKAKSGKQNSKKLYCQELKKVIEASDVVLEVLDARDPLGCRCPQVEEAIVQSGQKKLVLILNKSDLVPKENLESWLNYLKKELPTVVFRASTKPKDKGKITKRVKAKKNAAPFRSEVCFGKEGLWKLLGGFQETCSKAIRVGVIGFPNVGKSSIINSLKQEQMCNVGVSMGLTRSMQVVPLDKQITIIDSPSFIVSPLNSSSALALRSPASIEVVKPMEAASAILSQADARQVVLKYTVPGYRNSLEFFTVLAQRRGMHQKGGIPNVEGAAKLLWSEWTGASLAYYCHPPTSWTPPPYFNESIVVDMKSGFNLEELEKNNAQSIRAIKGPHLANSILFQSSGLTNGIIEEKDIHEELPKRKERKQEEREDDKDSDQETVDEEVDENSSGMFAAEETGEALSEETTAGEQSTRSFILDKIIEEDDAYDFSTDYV
UniProt Q5T3I0: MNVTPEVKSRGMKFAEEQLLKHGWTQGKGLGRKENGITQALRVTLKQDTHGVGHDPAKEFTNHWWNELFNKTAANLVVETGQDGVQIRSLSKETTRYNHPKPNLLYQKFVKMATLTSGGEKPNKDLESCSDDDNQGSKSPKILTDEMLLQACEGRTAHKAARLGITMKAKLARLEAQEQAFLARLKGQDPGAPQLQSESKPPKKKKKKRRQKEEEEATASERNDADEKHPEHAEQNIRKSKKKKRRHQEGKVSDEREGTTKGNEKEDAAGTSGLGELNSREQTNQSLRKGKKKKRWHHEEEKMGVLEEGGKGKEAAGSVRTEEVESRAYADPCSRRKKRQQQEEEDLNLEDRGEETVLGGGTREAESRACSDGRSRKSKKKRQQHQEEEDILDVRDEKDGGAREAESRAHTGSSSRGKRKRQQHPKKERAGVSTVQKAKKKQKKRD
UniProt Q9P0R6: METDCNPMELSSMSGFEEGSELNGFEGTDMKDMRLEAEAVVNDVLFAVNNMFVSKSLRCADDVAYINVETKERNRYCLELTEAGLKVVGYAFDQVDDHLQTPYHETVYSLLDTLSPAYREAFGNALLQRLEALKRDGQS
UniProt P15170: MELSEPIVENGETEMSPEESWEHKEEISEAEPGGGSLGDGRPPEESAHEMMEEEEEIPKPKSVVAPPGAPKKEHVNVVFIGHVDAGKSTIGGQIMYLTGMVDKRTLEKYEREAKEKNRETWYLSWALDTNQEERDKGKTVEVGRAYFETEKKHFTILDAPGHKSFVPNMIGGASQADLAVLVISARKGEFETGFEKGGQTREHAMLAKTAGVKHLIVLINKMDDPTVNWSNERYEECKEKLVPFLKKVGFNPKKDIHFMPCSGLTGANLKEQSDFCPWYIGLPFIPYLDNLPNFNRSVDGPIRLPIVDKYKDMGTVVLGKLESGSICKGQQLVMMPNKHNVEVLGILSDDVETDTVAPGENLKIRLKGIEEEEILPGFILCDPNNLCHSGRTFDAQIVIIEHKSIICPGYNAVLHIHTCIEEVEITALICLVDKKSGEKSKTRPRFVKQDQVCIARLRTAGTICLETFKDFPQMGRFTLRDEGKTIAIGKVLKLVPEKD

This is one part of the list. The data scatter; read single values as rough.

Compound in test [1]: ClCC(=O)N[C@@H]1CCCc2ccccc12
Put plainly: log2 mean competition ratio of IA-DTB cysteine labelling (DMSO/compound) (log2 ratio); higher = stronger cysteine engagement by compound. The following applies: treatment time: 4 h, cell line lysate: HEK293T. How it is done: (§1)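 IA-DTB competitive cysteine chemoproteomics in HEK293T RIPA lysate. Lysates were treated with compound 29 or 30 at 50 or 200 µM for 4 h, then IA-DTB (500 µM, 1 h), trypsin-digested, NeutrAvidin-enriched and analysed by diaPASEF. Competition ratio = intensity DMSO / intensity compound (n=4 treated, n=64 DMSO); binding: mean log2 CR ≥ 1 and p ≤ 0.05 plus QC filters. Target is the cysteine site.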

Compound in test [2]: ClCC(=O)N[C@H]1CCCc2ccccc12
The test is described as above. The following applies: treatment time: 4 h, cell line lysate: HEK293T. The method, then: as §1

For the target GLO1 C61 (UniProt Q04760), the “log2 mean competition ratio” value in test [1] (50 µM) was 0.131; in test [1] (200 µM), -0.416; in test [2] (50 µM) it was -0.0729; in test [2] (200 µM), -0.328.

As to GLG1 C419 (UniProt Q92896), the “log2 mean competition ratio” value is -0.273 in test [1] (50 µM), 0.298 in test [1] (200 µM), 0.221 in test [2] (50 µM) and 0.286 in test [2] (200 µM).

For the target GNPAT C668 (UniProt O15228), the “log2 mean competition ratio” value in test [1] (50 µM) was -0.0244; in test [1] (200 µM), -0.0671; in test [2] (50 µM) it was 0.101; in test [2] (200 µM), 0.0456.

With GCN1 C939 (UniProt Q92616), the “log2 mean competition ratio” value in test [1] (50 µM) was 0.4; in test [1] (200 µM), -0.233; in test [2] (50 µM) it was -0.222; in test [2] (200 µM), -0.245.

Take GLUD1 C327 (UniProt P00367): the “log2 mean competition ratio” value is -0.221 in test [1] (50 µM), -0.487 in test [1] (200 µM), 0.343 in test [2] (50 µM) and -0.29 in test [2] (200 µM).

As to GRK6 C57 (UniProt P43250), the “log2 mean competition ratio” value in test [1] (50 µM) was -0.129; in test [1] (200 µM), 0.116; in test [2] (50 µM), -0.275; in test [2] (200 µM) it was 0.0866.

As for GSK3A C380 (UniProt P49840), the “log2 mean competition ratio” value in test [1] (50 µM) turned out to be 0.00656; in test [1] (200 µM) it was 0.569; in test [2] (50 µM) it was 0.0668; in test [2] (200 µM), 0.224.

For the target GNL3 C251 (UniProt Q9BVP2), the “log2 mean competition ratio” value is 0.122 in test [1] (50 µM), 0.0996 in test [1] (200 µM), -0.114 in test [2] (50 µM) and 0.116 in test [2] (200 µM).

Turning to GNL3L C244 (UniProt Q9NVN8), the “log2 mean competition ratio” value was 0.104 in test [1] (50 µM), 0.257 in test [1] (200 µM), -0.129 in test [2] (50 µM) and 0.126 in test [2] (200 µM).

In the case of GPATCH4 C333 (UniProt Q5T3I0), the “log2 mean competition ratio” value in test [1] (50 µM) was found to be 0.0397; in test [1] (200 µM), 0.106; in test [2] (50 µM), 0.15; in test [2] (200 µM) it was 0.155.

For GSKIP C59 (UniProt Q9P0R6), the “log2 mean competition ratio” value in test [1] (50 µM) was -0.508; in test [1] (200 µM), -0.0301; in test [2] (50 µM) it was -0.0407; in test [2] (200 µM), 0.098.

GRB14 C360: the “log2 mean competition ratio” value was -0.058 in test [1] (50 µM), 0.0774 in test [1] (200 µM), -0.101 in test [2] (50 µM) and 0.111 in test [2] (200 µM).

Turning to GORASP2 C173 (UniProt Q9H8Y8), the “log2 mean competition ratio” value in test [1] (50 µM) was -0.201; in test [1] (200 µM) it was -0.00483; in test [2] (50 µM), 0.0498; in test [2] (200 µM), 0.0509.

For GSPT1 C237 (UniProt P15170), the “log2 mean competition ratio” value is -0.198 in test [1] (50 µM), 0.0534 in test [1] (200 µM), -0.288 in test [2] (50 µM) and 0.091 in test [2] (200 µM).
